Some results were stated once for a whole list of compounds, not compound by compound.
Tests used:
Type in all cases: cell-based, human
[1] = tested on: Jurkat; test: Leukemia cell growth inhibition, MTT, 72 h; settings: as compared with oridonin
Text: (§1) Leukemia cell lines: leukemia cell lines: K562/adr (drug-resistant, chronic myeloid leukemia, CML), NB4 (acute promyelocytic leukemia, AML), Kasumi-1 (acute myeloid leukemia M2 type, AML-M2), Jurkat (acute lymphoblastic leukemia, ALL), all of which were donated by Cancer Research Institute of Zhejiang University, China; and H9 (acute lymphoblastic leukemia, ALL), which was purchased from China Center for Type Culture Collection.
(§2) 6000 well-growing leukemia cells were obtained and inoculated into wells of a 96-well cell culture plate. […] On the next day, the 1-oxo/acylated-14-acylated oridonin derivatives of different concentrations were added and mixed uniformly. The plate was placed in a carbon dioxide cell incubator (5% CO2) at 37° C. and was incubated for 72 hours. Then the viable cell concentration was determined by MTT method.

[2] = tested on: K562/ADR; test: Leukemia cell growth inhibition, MTT, 72 h; settings: as compared with oridonin
Text: as §1, §2

[3] = tested on: Kasumi-1; test: Leukemia cell growth inhibition, MTT, 72 h; settings: as compared with oridonin
Text: as §1, §2

[4] = tested on: RPMI 8226; test: Multiple myeloma cell growth inhibition, MTT, 72 h; settings: as compared with oridonin
Procedure: Multiple myeloma cell lines: RPMI8226 (multiple myeloma), purchased from Fuxiang Bio-tech Co. Ltd., Shanghai, China.
as §2, with “well-growing” for “well-growing leukemia”, “and” for “and was”

[5] = tested on: Hep G2; test: Solid tumor cell growth inhibition, MTT, 72 h; settings: in comparison with oridonin
Procedure: (§3) 6000 well-growing human solid tumor cells were obtained and inoculated into wells of a 96-well cell culture plate. The culture medium was DMEM High Glucose cell culture medium containing 10% fetal bovine serum. The plate was placed in a carbon dioxide cell incubator (5% CO2) at 37° C. and incubated for 24 hours. After added with 1-oxo/acylated-14-acylated oridonin derivatives of different concentration and mixed uniformly, the plate was placed in a carbon dioxide cell incubator (5% CO2) at 37° C. and incubated for 72 hours. Then the viable cell concentration was determined by MTT method.

[6] = tested on: MG-63; test: Solid tumor cell growth inhibition, MTT, 72 h; settings: in comparison with oridonin
Procedure: as §3

[7] = tested on: PANC-1; test: Solid tumor cell growth inhibition, MTT, 72 h; settings: in comparison with oridonin
Procedure: as §3

[8] = tested on: PC-3; test: Solid tumor cell growth inhibition, MTT, 72 h; settings: in comparison with oridonin
Procedure: as §3

[9] = tested on: SK-OV-3; test: Solid tumor cell growth inhibition, MTT, 72 h; settings: in comparison with oridonin
Procedure: as §3

C=C1C(=O)[C@]23[C@H](OC(=O)c4ccc(C)cc4)[C@H]1CC[C@H]2[C@@]12CO[C@@]3(O)[C@@H](O)[C@@H]1C(C)(C)CCC2OC(C)=O (stereo partly drawn) [BS-OR-090]
anti-Jurkat cell line activity increased [1]: 3- to 4 fold
anti-K562/adr cell line activity increased [2]: 3- to 4 fold
anti-Kasumi-1 cell line activity increased [3]: 3- to 4 fold
anti-RPMI8226 cell activity increased [4]: more than 9 fold
anti-Hep G2 cell line activity increased [5]: 7- to 8 fold
anti-MG-63 activity increased [6]: more than 5 fold
anti-PANC-1 cell line activity increased [7]: 7- to 8 fold
anti-PC-3 activity increased [8]: more than 5 fold
anti-SK-OV-3 activity increased [9]: more than 7 fold
